Earlier results as cited in PMC11510164 (Pharmaceuticals, 2024).

Conditions: 25 °C, depending on source and conditions

- water solubility: 40 to 70 µg/mL
Compound: CC(C)Cc1ccc(C(C)C(=O)O)cc1 (stereo not shown) [IBU, Ibuprofen, reference compound]
